Results published in patent publication US20240109958A1.
Results are given in words; binding and its absence hold for the method and conditions named. Binding seen in cells or lysates may run through a third protein. Some entries that bind do so weakly or less than the wild type.

T1: internal GGX peptide … (human)
T1 sequence (peptide): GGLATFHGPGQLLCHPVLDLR

T2: internal GGX peptide … (human)
T2 sequence (peptide): GGMTSTYGR

T3: internal GGX peptide GGMoxALALAVTK (human)
T3 sequence (peptide, oxidised methionine (Mox) at position 3): GGMALALAVTK

T4: internal GGX peptide GGMLTNAR (human)
T4 sequence (peptide): GGMLTNAR


Tests used:
[1] = target: T1, internal GGX peptide … (human); test: immunoaffinity enrichment from trypsin-digested HEK293 lysate, LC-MS/MS extracted ion chromatograms (FIG. 3E)
[2] = target: T2, internal GGX peptide … (human); test: as above; remark: listed apart in the source
[3] = target: T3, internal GGX peptide GGMoxALALAVTK (human); test: immunoaffinity enrichment from trypsin-digested HEK293 lysate, LC-MS/MS extracted ion chromatograms (FIG. 3D)
[4] = target: T4, internal GGX peptide GGMLTNAR (human); test: as above

Row | binding [1] | binding [2] | binding [3] | binding [4] | Binder
1 | binds | binds |  |  | anti-GGX monoclonal antibody 2E9 (rabbit IgG) (antibody, V domains shown) VH: QKQLMESGGRLVTPGTPLTLTCKVSGFSLSSYYMNWVRQAPGKGLEWIGIMFPNGKIYYATWAKGRFTISKTSTTVDLKIISPTTEDTATYFCTGDDSGDVNIWGPGTLVTVSS VL: DIVLTQTASPVSAAVGGTVTINCQSSQSVYTNNRLAWYQQKPGQPAKEMIYGASTLPSGVSSRFKGSGSGTQFALTISDVQCDDAATYYCLGEFDCTSADCFVFGGGTEVVVKG
2 | binds | binds |  |  | anti-GGX monoclonal antibody 2H2 (rabbit IgG) (antibody, V domains shown) VH: QSVEESRGRLVTPGTPLTLTCKVSGFSLSSYYMNWVRQAPGKGLEWIGIMFPNGKIYYATWAKGRFTISKTSTTVDLKIISPTTEDTATYFCTGDDSGDVNIWGPGTLVTVSS VL: DPMLTQTASPVSAAVGGTVTINCQSSQSVYSNNRLAWYQQKPGQPPKEMIYGASTLPSGVSSRFKGSGSGTQFTLTISDVQCDDAATYYCLGTYDCLSADCLAFGGGTEVVVKG
3 |  |  | binds | binds | anti-GGX monoclonal antibody 2B12 (rabbit IgG) (antibody, V domains shown) VH: QSVEESGGGLVTPGGALTLTCTASGFSLNRHWMNWVRQAPGKGLEWIGAINESGRTYYATWAKGRFFISKTTTTVDLKITSPTTADTATYFCVRDDDVSNFWGPGTLVTVSS VL: DPMLTQTPSSVSAAVGGTVSINCQSTKSVYKYNHLSWYQQKPGQPPKQLIFPASTLQSGVPSRFSGSGSGTQFTLTISDVQCDDAATYYCLGLYDCRSGDCNVFGGGTKLEIKG
